# Screen size: about 330,000 compounds; about 7,700 (2.3%) were called active. The inconclusive results got no clear call from the source; some entries with a clear call stand among them for comparison. Calls follow the shape of the dose curve; as a rule, active = well fitted inhibition curve with a large enough effect; inconclusive = small, poorly fitted or top-dose-only effect, or effect the other way; inactive = flat fitted curve, though single readings scatter. Potencies of inconclusive entries are doubtful fits and often do not repeat.
# Assay: qHTS screen for small molecules that inhibit ELG1-dependent DNA repair in human embryonic kidney (HEK293T) cells expressing luciferase-tagged ELG1; also: nearly all actives have a fitted effect of over 55% in size
# Conditions: HEK293T ELG1-luciferase reporter, luminescence, 16 h, DNA damage induced by 5-fluorouridine; activity change, negative = inhibition: at 46.1 µM (top of the series)
# Method in brief: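 In this reporter screen, reduction of luminescence relative to DMSO vehicle indicated activity. Compounds and 5-fluorouridine were added together to 2,000 cells per well, incubated for 16 hr at 37 °C, then developed with ONE-Glo.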
# % is scaled to controls: 0 for no effect and ±100 for the full control effect; potency is read from the fitted curve at half-maximal effect.
SMILES,"activity change, negative = inhibition",Potency
COc1cc(/C=C2/C(=N)N3C(c4ccccc4)=CSC3=NC2=O)ccc1OCC(=O)O,inactive: 15.8%,–
CSc1cccc(NC(=S)N2CCCN(Cc3ccccc3F)C2)c1,inactive: -5.23%,–
COc1ccc(C2C(C#N)=C(N)Oc3cc4c(cc32)OCO4)cc1 (stereo not drawn),–,"inconclusive: 29.1 µM [inhibitor, single point]"
COc1ccc2c(c1)oc1c(SCc3nc4ccccc4[nH]3)nc(C)nc12,–,"inconclusive: 20.6 µM [inhibitor, single point]"
COc1ccc2oc(C(=O)OCC(=O)NC(=O)NC(C)C)c(C)c2c1,–,"inconclusive: 16.4 µM [activator, partial curve, poor fit]"
COc1ccc(/C=N/NC(=O)c2cccc(NC(=O)c3ccccc3Cl)c2)cc1OC,inactive: 15%,–
CCC(=O)N(c1nnc(SCC(=O)Nc2ccc(N3CCOCC3)cc2)s1)C1CC1,inactive: -0.57%,–
C/C(=C/C#N)Nc1ccc(C)cc1,–,"inconclusive: 29.1 µM [inhibitor, partial curve, poor fit]"
C#CCOCCOCCOCCNc1nc(N2CCN(C(=O)CCCCCCCCCCNC(=O)[C@H](CO)n3cc(CCCCCN)nn3)CC2)nc(N2CCN(C(=O)CCCCCCCCCCNC(=O)[C@H](CCCN=C(N)N)n3cc(C[C@@H](C)CC)nn3)CC2)n1,–,"inconclusive: 31.6 µM [inhibitor, single point]"
CN(CC(=O)NCC1CCCCC1)CC(=O)Nc1ccccc1Br,inactive: -1.76%,–
COc1ccc(N(CC(=O)NCCSCc2ccc(C)cc2)S(=O)(=O)c2ccccc2)cc1,–,"inconclusive: 23.1 µM [inhibitor, single point]"
COc1ccc(CCn2c(=N)c(C(=O)NCc3ccco3)cc3c(=O)n4ccccc4nc32)cc1,–,active: 16.4 µM
O=C(CCN=C1NS(=O)(=O)c2ccccc21)OCc1ccccc1,inactive: 1.6%,–
CN1CCC(NCCC(c2ccc(F)cc2)c2ccc(Cl)cc2)CC1 (stereo not drawn),–,"inconclusive: 29.1 µM [inhibitor, single point]"
COc1cc(/C=N/n2cnnc2)ccc1OCc1ccc(C)cc1,–,"inconclusive: 14.6 µM [activator, partial curve]"
CCOC(=O)/C(=N\Nc1ccccc1)c1csc(Nc2ccc(C)cc2)n1,–,"inconclusive: 16.4 µM [inhibitor, partial curve]"
Cc1cccn2c(=O)c3cc(C(=O)NCCCOC(C)C)sc3nc12,inactive: -0.526%,–
CC1(C)Cc2nc3sc(C(=O)O)c(N)c3cc2CS1,inactive: 0.122%,–
Cc1ccc(C(=O)c2coc3ccc(O)c(Cl)c23)cc1,–,"inconclusive: 5.8 µM [activator, full curve]"
CCc1ccc2oc(-c3cccc(NC(=O)c4cccnc4)c3)nc2c1,–,"inconclusive: 2.06 µM [activator, partial curve, poor fit]"
CCOc1cc(C(=O)N(CC)CC(=O)Nc2c(F)cccc2F)ccc1OCC(=O)N1CCOCC1,–,"inconclusive: 0.259 µM [activator, single point]"
Cn1c(SCC(=O)c2ccccc2)nnc1-c1ccco1,–,"inconclusive: 14.6 µM [activator, partial curve]"
Cc1ccc(C(=O)N2CCCC(CCC(=O)N3CCN(c4ccccn4)CC3)C2)cn1 (stereo not drawn),inactive: 2.4%,–

SMILES,"activity change, negative = inhibition",Potency
CC(NC(=O)C1(S(=O)(=O)c2ccc(Cl)cc2)CC1)c1ccccc1 (stereo not drawn),inactive: 1.24%,–
Cc1nn(Cc2ccc(Cl)cc2)c(C)c1NC(=O)CSc1nc2c(c(C(F)(F)F)n1)CCc1ccccc1-2,–,"inconclusive: 29.1 µM [inhibitor, single point]"
Cc1cccc(-c2nsc(SCC(=O)Nc3ccc4c(c3)OCO4)n2)c1,–,"inconclusive: 11.6 µM [activator, partial curve]"
CN(C)c1ccc(-c2nc3cnccn3c2Nc2ccc3c(c2)OCCO3)cc1,–,"inconclusive: 8.2 µM [activator, partial curve, poor fit]"
O=C(Nc1ccc(N2CCOCC2)cc1)c1cccc(S(=O)(=O)N2CCCCCC2)c1,–,active: 3.26 µM
Nc1ccc(Oc2ccc3c(c2)C(=O)N(CC2CCCO2)C3=O)cc1 (stereo not drawn),–,"inconclusive: 8.2 µM [activator, partial curve]"
COc1ccc2nc(C)cc(N/N=C/c3ccc(F)cc3)c2c1,–,"inconclusive: 9.2 µM [inhibitor, single point]"
COc1cc(NC(=S)NC(=O)c2cc(C)cc(C)c2)ccc1NC(=O)c1cccs1,–,"inconclusive: 4.61 µM [inhibitor, full curve]"
O=C(CC(O)(C(F)(F)F)C(F)(F)F)Nc1ccc(Cl)c(Cl)c1,–,active: 4.11 µM
COc1cc2c(cc1OC)C(C)N(C(=O)c1cc3ccccc3o1)CC2 (stereo not drawn),–,"inconclusive: 29.1 µM [inhibitor, single point]"
CC(C)CN(C(=O)C1CCCCC1)C1CCS(=O)(=O)C1 (stereo not drawn),–,"inconclusive: 29.1 µM [activator, single point]"
Cc1ccc(-n2ncc3c2CC(C)(C)CC3NC(=O)CCc2ccncc2)cc1 (stereo not drawn),–,"inconclusive: 23.1 µM [inhibitor, partial curve, poor fit]"
O=C(c1cc(COc2ccc(F)cc2F)on1)N1C[C@H]2CC[C@H]1C2,–,"inconclusive: 16.4 µM [activator, partial curve]"
COc1cc2ncc(S(=O)(=O)c3ccccc3)c(N3CCC4(CC3)OCCO4)c2cc1OC,–,"inconclusive: 18.3 µM [inhibitor, single point]"
COc1ccc(C(=O)OCc2c(-c3cccc(OC)c3)ncc3ccccc23)cc1,–,"inconclusive: 10.3 µM [inhibitor, partial curve, poor fit]"
O=C(NCC(=O)N(c1ccccc1F)C(C(=O)NC1CCCC1)c1ccncc1)c1ccco1 (stereo not drawn),inactive: -3.64%,–
C/C(CC(=O)Nc1ccc(Cl)cc1Cl)=N\NC(=O)c1ccco1,–,"inconclusive: 29.1 µM [activator, single point]"
Cc1ccccc1-n1nc2c(c1NC(=O)c1ccc3c(c1)OCO3)CS(=O)(=O)C2,inactive: 4.16%,–
CC(=O)N1CCc2cc(C(=O)CN3CCN(c4ccccn4)CC3)ccc21,–,"inconclusive: 29.1 µM [activator, single point]"
CC(C)CNC(=O)[C@@H]1CSC2c3ccccc3C(=O)N21 (stereo partly drawn),–,"inconclusive: 2.59 µM [inhibitor, partial curve, poor fit]"
Cc1ccc2c(cnn2C(=O)CCCC(=O)NCc2ccc(F)cc2)c1,inactive: 25%,–
S=C(NCc1ccccc1)NNc1nc2ccccc2[nH]1,inactive: -14.8%,–
Cc1ccc(S(=O)(=O)NCC(c2ccco2)N2CCc3ccccc3C2)cc1 (stereo not drawn),inactive: 6.22%,–

SMILES,"activity change, negative = inhibition",Potency
Cc1nc(NC(=O)c2ccc(Br)o2)ccc1Br,–,"inconclusive: 20.6 µM [activator, single point]"
CCN1C(=O)/C(=C/N(C)c2ccccc2)OC1=S,–,"inconclusive: 20.6 µM [activator, partial curve, poor fit]"
COc1cc(C(=O)NCCNc2nc3cc(C)ccc3cc2C#N)cc(OC)c1OC,–,"inconclusive: 10.3 µM [inhibitor, partial curve, poor fit]"
Cc1ccc(S(=O)(=O)Nc2nc3ccccc3nc2N2CCN(c3ccccc3F)CC2)cc1,inactive: -1.51%,–
Cc1ccc(-c2c(C)n([O-])c3c([n+]2=O)CCCC3)o1,–,"inconclusive: 4.11 µM [activator, single point]"
CCOc1cc2[nH]c(=O)n(CCCCC(=O)NCc3ccco3)c(=O)c2cc1OCC,–,"inconclusive: 20.6 µM [inhibitor, partial curve, poor fit]"
O=C(CCCC(=O)OCC(Cl)=C(Cl)Cl)Nc1ccc(F)cc1,inactive: 7.95%,–
COc1cccc(NC(=O)CSc2nnc(-c3cc(-c4ccccn4)nc4ccccc34)o2)c1,–,"inconclusive: 18.4 µM [inhibitor, single point]"
COC(=O)Cc1csc(Nc2ccccc2)n1,–,"inconclusive: 20.6 µM [activator, single point]"
Cn1nnc2cc(C(=O)Nc3ccc4ccccc4c3)ccc21,–,"inconclusive: 4.11 µM [activator, full curve]"
O=C(CSc1nnc(-c2cccs2)o1)Nc1cccc(S(=O)(=O)N2CCCCC2)c1,–,"inconclusive: 20.6 µM [activator, partial curve, poor fit]"
Fc1cccc(/C=N/NC(=S)Nc2ccccc2Cl)c1,–,"inconclusive: 18.4 µM [activator, partial curve]"
CCOC(=O)c1sc(Nc2nc(C)cc(OC)n2)nc1C,inactive: -19.8%,–
O=C(NCCc1c[nH]c2ccccc12)c1cnccn1,–,"inconclusive: 20.6 µM [activator, partial curve]"
Cc1ccc(SCC(=O)c2c(C)nc3ccccn23)cc1,–,"inconclusive: 29.1 µM [inhibitor, single point]"
Cc1ccccc1Nc1nc(N)nc(CSc2nnnn2C)n1,–,"inconclusive: 20.6 µM [activator, partial curve]"
COc1ccc(C(=O)OCc2ccccc2F)cc1S(=O)(=O)N1CCCC1,–,"inconclusive: 29.1 µM [inhibitor, single point]"
Cc1cccc(NC(=S)N(CCN(C)C)Cc2cc3cccc(C)c3[nH]c2=O)c1,–,active: 13 µM
Cc1ccc(CS(=O)(=O)Cc2ccc(C(=O)NC3CCCCCC3)o2)cc1,–,active: 18.3 µM
Cc1cnc(C(=O)OCc2c(C)cc(C(C)(C)C)cc2C)cn1,–,"inconclusive: 6.51 µM [inhibitor, single point]"
Cc1ccc(-c2csc3ncnc(N4CCN(C(=O)c5ccccc5)CC4)c23)cc1,–,active: 18.4 µM
C/C(=N/NS(=O)(=O)c1ccc(CC(C)C)cc1)c1ccncc1,–,"inconclusive: 4.61 µM [inhibitor, full curve, poor fit]"

# Quoted from the listing.
# `O=C(CCCC(=O)OCC(Cl)=C(Cl)Cl)Nc1ccc(F)cc1` – activity change, negative = inhibition: inactive: 7.95%
# `COC(=O)Cc1csc(Nc2ccccc2)n1` – Potency: inconclusive: 20.6 µM [activator, single point]
# `Cc1ccc(CS(=O)(=O)Cc2ccc(C(=O)NC3CCCCCC3)o2)cc1` – Potency: active: 18.3 µM
# `Cc1cnc(C(=O)OCc2c(C)cc(C(C)(C)C)cc2C)cn1` – Potency: inconclusive: 6.51 µM [inhibitor, single point]
